Data: paper PMC4200232
No constants are given. Whether binding was seen depends on the method and setting. In cells and extracts the contact can be indirect. Some results given as binding are weak or reduced against the parent protein; the word gives no strength.

Sequences of proteins named here, by UniProt entry; tags and fusion partners are left off. Residues count along the entry.
UniProt P21926: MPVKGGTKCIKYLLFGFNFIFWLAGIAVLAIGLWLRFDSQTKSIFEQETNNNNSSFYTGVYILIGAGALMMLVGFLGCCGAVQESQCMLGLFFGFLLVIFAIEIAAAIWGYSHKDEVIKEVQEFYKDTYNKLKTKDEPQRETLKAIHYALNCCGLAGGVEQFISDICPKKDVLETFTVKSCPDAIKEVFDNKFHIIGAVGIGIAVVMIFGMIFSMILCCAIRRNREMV
UniProt Q9H5V8, residues 30-836: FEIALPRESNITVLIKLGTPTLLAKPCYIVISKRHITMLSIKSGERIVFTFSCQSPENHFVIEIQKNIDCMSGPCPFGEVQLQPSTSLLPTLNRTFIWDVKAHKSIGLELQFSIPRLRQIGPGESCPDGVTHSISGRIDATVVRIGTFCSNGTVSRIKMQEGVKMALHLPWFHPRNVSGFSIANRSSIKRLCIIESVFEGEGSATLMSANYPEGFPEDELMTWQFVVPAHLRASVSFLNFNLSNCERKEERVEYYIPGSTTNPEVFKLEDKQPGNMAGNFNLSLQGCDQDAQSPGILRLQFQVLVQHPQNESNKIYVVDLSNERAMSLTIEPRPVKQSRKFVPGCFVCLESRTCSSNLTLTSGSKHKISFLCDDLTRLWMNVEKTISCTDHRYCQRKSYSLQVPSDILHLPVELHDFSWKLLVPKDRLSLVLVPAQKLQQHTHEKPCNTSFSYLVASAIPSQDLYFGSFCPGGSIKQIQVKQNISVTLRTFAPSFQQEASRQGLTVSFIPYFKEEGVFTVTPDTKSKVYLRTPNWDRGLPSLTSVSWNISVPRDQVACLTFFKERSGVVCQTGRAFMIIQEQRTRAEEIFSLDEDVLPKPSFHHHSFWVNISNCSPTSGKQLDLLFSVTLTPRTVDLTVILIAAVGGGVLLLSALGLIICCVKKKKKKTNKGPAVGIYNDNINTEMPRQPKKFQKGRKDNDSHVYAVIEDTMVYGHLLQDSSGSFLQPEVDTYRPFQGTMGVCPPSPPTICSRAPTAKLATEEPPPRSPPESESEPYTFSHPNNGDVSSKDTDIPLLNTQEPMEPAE

Biological target: tetraspanin CD9 (human (endogenous in SW480 and HT-29)) (UniProt P21926)
Assay: co-IP; SW480 cells lysed in 1% (w/v) Brij97, 10 mM Tris-HCl pH 7.4, 150 mM NaCl, 1 mM CaCl2, 1 mM MgCl2; 500 ug lysate protein; CD9 precipitated with 5 ug mouse anti-CD9 clone ALB6 and protein G beads overnight at 4°C; Western blot for CDCP1, EpCAM and CD9; isotype-matched IgG and beads alone as controls

CUB domain-containing protein-1 (CDCP1) (from UniProt Q9H5V8 30-836)
binding: binds

B1: Epithelial cell adhesion molecule (EpCAM) (protein, UniProt P16422 24-314)
chain: QEECVCENYKLAVNCFVNNNRQCQCTSVGAQNTVICSKLAAKCLVMKAEMNGSKLGRRAKPEGALQNNDGLYDPDCDESGLFKAKQCNGTSMCWCVNTAGVRRTDKDTEITCSERVRTYWIIIELKHKAREKPYDSKSLRTALQKEITTRYQLDPKFITSILYENNVITIDLVQNSSQKTQNDVDIADVAYYFEKDVKGESLFHSKKMDLTVNGEQLDLDPGQTLIYYVDEKAPEFSMQGLKAGVIAVIVVVVIAVVAGIVVLVISRKKRMAKYEKAEIKEMGEMHRELNA
binding: binds
